Laboratory results as given in PMC4772494.
These are yes or no findings as the source states them, for the method shown. Binding seen in cells or lysates may run through a third protein. Some results given as binding are weak or reduced against the parent protein; the word gives no strength. One block for each binder: values may come before it.

Tests used:
[1] = molecular target: T1, Nod-like receptor protein 1 (NLRP1) (rat (endogenous in spinal cord tissue and primary spinal cord neurons)) (UniProt D9I2F9); assay: co-IP; primary rat spinal cord neuron lysates (untreated, or 6 h 10 μM H2O2) in 50 mM Tris-HCl pH 7.4, 150 mM NaCl, 0.5 % NP-40; anti-NLRP1 antibody coupled to magnetic Dynabeads, overnight at 4 °C, low-pH elution, immunoblot
T1 sequence: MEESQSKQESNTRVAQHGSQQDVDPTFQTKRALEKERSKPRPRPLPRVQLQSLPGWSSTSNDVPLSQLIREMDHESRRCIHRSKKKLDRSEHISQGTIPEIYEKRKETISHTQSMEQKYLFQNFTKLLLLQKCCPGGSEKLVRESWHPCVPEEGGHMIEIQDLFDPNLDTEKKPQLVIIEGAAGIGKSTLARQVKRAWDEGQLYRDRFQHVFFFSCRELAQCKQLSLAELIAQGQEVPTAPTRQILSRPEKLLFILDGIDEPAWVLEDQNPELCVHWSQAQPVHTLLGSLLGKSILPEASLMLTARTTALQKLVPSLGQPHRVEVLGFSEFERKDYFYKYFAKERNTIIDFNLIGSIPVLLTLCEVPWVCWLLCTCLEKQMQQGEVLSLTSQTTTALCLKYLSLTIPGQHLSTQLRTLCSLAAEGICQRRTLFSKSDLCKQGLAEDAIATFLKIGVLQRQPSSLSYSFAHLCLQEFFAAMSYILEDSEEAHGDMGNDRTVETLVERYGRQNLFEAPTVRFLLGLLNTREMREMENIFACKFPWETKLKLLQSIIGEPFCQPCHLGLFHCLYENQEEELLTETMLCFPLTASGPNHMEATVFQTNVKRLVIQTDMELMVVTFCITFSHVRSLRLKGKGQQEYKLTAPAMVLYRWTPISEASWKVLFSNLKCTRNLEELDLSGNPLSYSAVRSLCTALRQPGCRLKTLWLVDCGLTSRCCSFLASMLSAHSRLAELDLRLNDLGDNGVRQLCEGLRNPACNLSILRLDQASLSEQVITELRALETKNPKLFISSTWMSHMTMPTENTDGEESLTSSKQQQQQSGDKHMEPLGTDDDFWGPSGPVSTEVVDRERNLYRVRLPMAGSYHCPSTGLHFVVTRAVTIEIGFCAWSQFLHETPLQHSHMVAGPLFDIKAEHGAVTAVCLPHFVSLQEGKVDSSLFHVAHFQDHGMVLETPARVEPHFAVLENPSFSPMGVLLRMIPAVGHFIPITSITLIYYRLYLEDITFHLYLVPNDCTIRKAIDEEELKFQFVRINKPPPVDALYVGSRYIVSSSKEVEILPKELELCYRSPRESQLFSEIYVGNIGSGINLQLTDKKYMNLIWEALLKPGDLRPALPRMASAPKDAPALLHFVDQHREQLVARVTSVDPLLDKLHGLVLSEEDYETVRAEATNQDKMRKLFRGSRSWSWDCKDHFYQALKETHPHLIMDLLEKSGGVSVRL

[2] = molecular target: T1, Nod-like receptor protein 1 (NLRP1) (rat (endogenous in spinal cord tissue and primary spinal cord neurons)); assay: co-IP; rat spinal cord lysates (sham, or 24 h after SCI) in 50 mM Tris-HCl pH 7.4, 150 mM NaCl, 0.5 % NP-40; anti-ASC or anti-NLRP1 antibody coupled to magnetic Dynabeads, overnight at 4 °C, low-pH elution, immunoblot; pre-immune serum as negative control

binding [1]: binds
B1: caspase-1 p20 (domain or fragment, UniProt P43527 119-296)
chain: NKEGGAFPGPSGSLKFCPLEIAQKLWKENHSEIYPIMKTPTRTRLALIICNTDFQHLSRRVGADVDLREMKLLLQDLGYTVKVKENLTALEMTKELKEFAACPEHKTSDSTFLVFMSHGLQEGICGITYSNEVADILKVDTIFQMMNTLKCPSLKDKPKVIIIQACRGEKQGVVLLKD

binding [1]: binds
binding [2]: binds
B2: pro-caspase-1 (enzyme, UniProt P43527 1-402)
chain: MADKVLRAKRKQFINSVSVGTINGLLDELLEKRVLNQEEMDTIKLANITVMEKARDLCDHVTKKGPRASQMFITYICNEDCYLAEILELQSGPSAETVFVTEDSKGGHPFSSETKEKLNKEGGAFPGPSGSLKFCPLEIAQKLWKENHSEIYPIMKTPTRTRLALIICNTDFQHLSRRVGADVDLREMKLLLQDLGYTVKVKENLTALEMTKELKEFAACPEHKTSDSTFLVFMSHGLQEGICGITYSNEVADILKVDTIFQMMNTLKCPSLKDKPKVIIIQACRGEKQGVVLLKDSVGNSEEGFLTDAIFEDDGIKKAHIEKDFIAFCSSTPDNVSWRHPVRGSLFIESLIKHMKEYAWSCDLEDIFRKVRFSFEQPDSRLQMPTTERVTLTKRFYLFPGH
